One molecule from PMC2363329, “Interaction of the PA2G4 (EBP1) protein with ErbB-3 and regulation of this binding by heregulin” (British Journal of Cancer, 2000) can be followed below.

Protein sequences, listed by entry. Tags and fused reporters are not part of them. Lines headed by an entry give the natural chain unless they say otherwise; changes in a name come on top.
UniProt Q62799: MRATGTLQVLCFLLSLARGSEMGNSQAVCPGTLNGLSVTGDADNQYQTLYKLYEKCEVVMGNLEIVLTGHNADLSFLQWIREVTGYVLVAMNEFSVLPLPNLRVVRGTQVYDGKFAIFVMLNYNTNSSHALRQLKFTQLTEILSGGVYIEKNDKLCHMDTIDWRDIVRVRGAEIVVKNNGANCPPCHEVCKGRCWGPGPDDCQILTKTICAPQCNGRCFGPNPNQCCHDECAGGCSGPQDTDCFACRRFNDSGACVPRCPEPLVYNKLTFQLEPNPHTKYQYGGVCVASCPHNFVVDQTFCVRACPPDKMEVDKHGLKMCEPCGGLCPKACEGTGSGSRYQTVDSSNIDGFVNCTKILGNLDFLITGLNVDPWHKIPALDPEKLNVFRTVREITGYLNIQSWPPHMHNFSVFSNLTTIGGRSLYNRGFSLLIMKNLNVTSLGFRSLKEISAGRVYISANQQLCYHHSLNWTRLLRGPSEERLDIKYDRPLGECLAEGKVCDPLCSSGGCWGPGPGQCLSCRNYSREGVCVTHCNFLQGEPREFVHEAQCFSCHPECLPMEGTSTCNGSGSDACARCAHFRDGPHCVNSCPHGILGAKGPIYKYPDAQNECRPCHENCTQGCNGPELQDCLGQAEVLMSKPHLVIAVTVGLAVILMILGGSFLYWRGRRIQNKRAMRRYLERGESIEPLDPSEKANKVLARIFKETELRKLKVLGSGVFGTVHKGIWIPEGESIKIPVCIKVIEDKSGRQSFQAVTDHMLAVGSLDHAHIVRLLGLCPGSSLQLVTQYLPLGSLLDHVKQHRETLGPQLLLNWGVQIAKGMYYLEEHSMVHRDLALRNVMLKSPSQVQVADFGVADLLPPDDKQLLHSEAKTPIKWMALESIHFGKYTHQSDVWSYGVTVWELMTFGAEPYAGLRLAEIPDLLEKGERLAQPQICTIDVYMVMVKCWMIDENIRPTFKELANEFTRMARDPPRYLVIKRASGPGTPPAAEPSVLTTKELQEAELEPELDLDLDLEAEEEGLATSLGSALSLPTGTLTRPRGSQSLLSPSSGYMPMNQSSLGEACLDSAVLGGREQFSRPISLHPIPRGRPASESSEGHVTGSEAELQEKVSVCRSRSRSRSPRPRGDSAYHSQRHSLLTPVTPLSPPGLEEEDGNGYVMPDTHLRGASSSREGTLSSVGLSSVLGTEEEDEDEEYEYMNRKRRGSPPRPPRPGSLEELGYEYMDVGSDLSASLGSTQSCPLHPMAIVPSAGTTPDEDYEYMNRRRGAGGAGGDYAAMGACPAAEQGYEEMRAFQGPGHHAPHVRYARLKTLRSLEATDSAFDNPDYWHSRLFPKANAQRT

These are yes or no findings as the source states them, for the method shown. In cells and extracts the contact can be indirect. A result given as binding can be weak or reduced; the word gives no strength.

The target in this assay is Alanine scanning mutant A5 of GST/ErbB-3 (665-690) (rat) (UniProt Q62799). The experiment in a line: pull-down; equal amounts of purified GST or GST-erbB3 fusion proteins incubated with in vitro translated 35S-labelled Ebp1 at 4C for 2 h; SDS-PAGE and autoradiography; only the target purified.

B1: 35S-labelled in vitro translation product of pBK/Ebp1 (amino acids 1-373 of Ebp1) (domain or fragment, UniProt Q9UQ80 1-373)
chain: MSGEDEQQEQTIAEDLVVTKYKMGGDIANRVLRSLVEASSSGVSVLSLCEKGDAMIMEETGKIFKKEKEMKKGIAFPTSISVNNCVCHFSPLKSDQDYILKEGDLVKIDLGVHVDGFIANVAHTFVVDVAQGTQVTGRKADVIKAAHLCAEAALRLVKPGNQNTQVTEAWNKVAHSFNCTPIEGMLSHQLKQHVIDGEKTIIQNPTDQQKKDHEKAEFEVHEVYAVDVLVSSGEGKAKDAGQRTTIYKRDPSKQYGLKMKTSRAFFSEVERRFDAMPFTLRAFEDEKKARMGVVECAKHELLQPFNVLYEKEGEFVAQFKFTVLLMPNGPMRITSGPFEPDLYKSEMEVQDAELKALLQSSASRKTQKKKKKK
modifications: 35S-labelled
B1: the binding entry is recorded as “binds”.
